Laboratory results as given in article PMC7819943, “Rice protein-binding microarrays: a tool to detect cis-acting elements near promoter regions in rice”.
Some of the results follow.

Amino acid sequences for entries named in this document (tags omitted).
UniProt Q0JBA9, entry or part of it: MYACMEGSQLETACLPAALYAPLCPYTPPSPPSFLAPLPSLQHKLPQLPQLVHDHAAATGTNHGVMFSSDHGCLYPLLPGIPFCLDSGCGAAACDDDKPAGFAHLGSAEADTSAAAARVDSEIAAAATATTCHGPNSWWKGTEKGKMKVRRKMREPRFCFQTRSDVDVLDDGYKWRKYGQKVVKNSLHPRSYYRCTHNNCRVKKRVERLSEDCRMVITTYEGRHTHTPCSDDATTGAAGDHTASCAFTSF

Each sequence was assayed against OsWRKY34 (Oryza sativa, UniProt Q0JBA9 1-250) (assay: protein-binding microarray (RPBM); PBS, 2% BSA, 51.3 ng/ul salmon testes DNA, 50 uM zinc acetate, 200 nM TF, 25 C, 1 h; high values mean tight binding). Details: protein: recombinant; tags: N-terminal polyhistidine and DsRed monomer fusion (pET32a); label: CyDye5-dUTP incorporated in the synthesized complementary strand; 3' TTTTT single-stranded linker to array surface; dsDNA, one strand shown.
Procedure, shortened: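 The binding signal for each feature is its fluorescence intensity in arbitrary units. An Axon 4000B scanner was used to read a custom Agilent array that had been made double-stranded with Cy5-dUTP primer extension, blocked with 2% BSA, incubated at 25 °C for 1 h with 200 nM protein in PBS, 2% BSA, salmon testes DNA and 50 µM zinc acetate, and washed. The protein was an N-terminal polyhistidine–DsRed transcription factor fusion from E. coli BL21-CodonPlus, purified on Ni–NTA.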

**Q.** How did the binding signal turn out when “TAGCTGTCAGAAGTTCGATGGTTATTGGTTTTGTTGCTGCCGGAGTCACCTAGTGCAG” was run?
**A.** The binding signal was 9890 fluorescence intensity (a.u.).

**Q.** How did the binding signal turn out when “CTCCGCTCGAGCCCCTCCGTTTTGATCCGATTCGCTCGCGCGGAGTCACCTAGTGCAG” was run?
**A.** The binding signal was 8110 fluorescence intensity (a.u.).

**Q.** “TCGCTCTCGCCCGCCGTCGCCATGCTCGCCCGCCGCCGCTCGGAGTCACCTAGTGCAG” was tested. Which binding signal did it give?
**A.** The binding signal was 12800 fluorescence intensity (a.u.).

**Q.** With “ATTCCATCCTGTTCTGTCATCCGTTTACACTTAAACACTCCGGAGTCACCTAGTGCAG” as the sequence, how does the binding signal read?
**A.** Its binding signal is 8860 fluorescence intensity (a.u.).

**Q.** “AACCTTATGGTCAAATCTGTCAAACCCTTTTGTGCCATGTCGGAGTCACCTAGTGCAG” was tested. Which binding signal did it give?
**A.** The binding signal was 9730 fluorescence intensity (a.u.).

**Q.** With “GAGTTCCATCGTTTCGTTTCGTTTCGCTTAGCGTATCCTTCGGAGTCACCTAGTGCAG” as the sequence, how does the binding signal read?
**A.** Its binding signal is 11900 fluorescence intensity (a.u.).

**Q.** “GTCTGTGAATGTTTTATTTGCCTTGTCTGAACTATCTTTACGGAGTCACCTAGTGCAG” was tested. Which binding signal did it give?
**A.** Its binding signal is 11400 fluorescence intensity (a.u.).

**Q.** Which binding signal does the source give for “CAGCTCGCGCCGCCGCCGCCGTCGCCGTCACTCTCCTCAGCGGAGTCACCTAGTGCAG” here?
**A.** The binding signal was 9080 fluorescence intensity (a.u.).

**Q.** For “TGCGCAAAAGGGATCATGGGGCAGGGGCAATGATGAAGCTCGGAGTCACCTAGTGCAG”, which binding signal is on record?
**A.** The binding signal was 9190 fluorescence intensity (a.u.).

**Q.** For “CAACTCCTACTCGCGCCACTCCGCCACTGGCGCCTGGCTACGGAGTCACCTAGTGCAG”, which binding signal is on record?
**A.** Its binding signal is 8100 fluorescence intensity (a.u.).

**Q.** How did the binding signal turn out when “ATGTGGGTCCCACGGGTTTTATTATTTTTCCGGGTCGAATCGGAGTCACCTAGTGCAG” was run?
**A.** Its binding signal is 8160 fluorescence intensity (a.u.).

**Q.** With “CAGTTCATTCGGAGGATGGATTAGCTCCAGTCATGTATTCCGGAGTCACCTAGTGCAG” as the sequence, how does the binding signal read?
**A.** Its binding signal is 8240 fluorescence intensity (a.u.).

**Q.** Which binding signal does the source give for “TGTGTCATGCCTTATATATTGTTGAGAATAAGTCTGTTTTCGGAGTCACCTAGTGCAG” here?
**A.** Its binding signal is 10000 fluorescence intensity (a.u.).

**Q.** How did the binding signal turn out when “ACGATCGCTGCCTCGCTCTCGTCCACTCACAAATCGATCTCGGAGTCACCTAGTGCAG” was run?
**A.** Its binding signal is 8990 fluorescence intensity (a.u.).

**Q.** With “ACATTCTCTTATACCCATCACAATCATTTGCTCAATAGGGCGGAGTCACCTAGTGCAG” as the sequence, how does the binding signal read?
**A.** The binding signal was 8620 fluorescence intensity (a.u.).

**Q.** “CCACACACACACCAAGCCGCGCGCGCGCGTGGTCCATACCCGGAGTCACCTAGTGCAG” was tested. Which binding signal did it give?
**A.** Its binding signal is 8750 fluorescence intensity (a.u.).

**Q.** “ATCTGCTTCACGGACTGCGCCTCTGTTTTACACTACCGACCGGAGTCACCTAGTGCAG” was tested. Which binding signal did it give?
**A.** The binding signal was 9580 fluorescence intensity (a.u.).

**Q.** For “TGCTGCTGCTGTTGCTGCTGATAGTGGTGGTGGTGGGTGGCGGAGTCACCTAGTGCAG”, which binding signal is on record?
**A.** The binding signal was 8340 fluorescence intensity (a.u.).

**Q.** How did the binding signal turn out when “TGGGCTTGGTGGAGGTGGCGGGTTTGGAGGCGGAGGTGGCCGGAGTCACCTAGTGCAG” was run?
**A.** Its binding signal is 14400 fluorescence intensity (a.u.).

**Q.** With “CCACCGTCGCCCGCTCCGGCCGCCACCCACCACGCTCCGCCGGAGTCACCTAGTGCAG” as the sequence, how does the binding signal read?
**A.** Its binding signal is 8910 fluorescence intensity (a.u.).

**Q.** Which binding signal does the source give for “AGTTAAACCGGCACTTCAACCATTTTTCCCGGTCCAATTACGGAGTCACCTAGTGCAG” here?
**A.** Its binding signal is 10100 fluorescence intensity (a.u.).

**Q.** How did the binding signal turn out when “CGCCTAGTCGCCTACTGCCCATTTGCCACCCAACCCTACTCGGAGTCACCTAGTGCAG” was run?
**A.** The binding signal was 11100 fluorescence intensity (a.u.).

**Q.** Which binding signal does the source give for “GCTGTTATTGGTTGCTCCTCGCGGTCTCCTTTTTTGGTGACGGAGTCACCTAGTGCAG” here?
**A.** The binding signal was 10800 fluorescence intensity (a.u.).

**Q.** For “TGTTACTGATTTTTCTCGTCGTTTTCCTTTTTCTTTCTTTCGGAGTCACCTAGTGCAG”, which binding signal is on record?
**A.** The binding signal was 11900 fluorescence intensity (a.u.).

**Q.** “TCCACGCACAAACCACGTAAGCACGCACCACCTCGCGCGGCGGAGTCACCTAGTGCAG” was tested. Which binding signal did it give?
**A.** Its binding signal is 8770 fluorescence intensity (a.u.).

**Q.** For “ATTAATATTTTATACGTGACTTGTCTTTTTAATTTTTTTCCGGAGTCACCTAGTGCAG”, which binding signal is on record?
**A.** Its binding signal is 8520 fluorescence intensity (a.u.).

**Q.** “GTTTTTCTATTAGTGAATACACCACTTCCATTCCTTTTTCCGGAGTCACCTAGTGCAG” was tested. Which binding signal did it give?
**A.** The binding signal was 8710 fluorescence intensity (a.u.).

**Q.** How did the binding signal turn out when “AACCTACTCTTATTTACCTTGTATATTGTCTCTCCCTTTTCGGAGTCACCTAGTGCAG” was run?
**A.** The binding signal was 10400 fluorescence intensity (a.u.).

**Q.** Which binding signal does the source give for “TCTTGTCTTCATCTACTCCTTTTGTACCAGAAAAAATAATCGGAGTCACCTAGTGCAG” here?
**A.** Its binding signal is 8140 fluorescence intensity (a.u.).

**Q.** With “TATGTGTTTTTTGCCGATTAAATTATTACGGGATATATAACGGAGTCACCTAGTGCAG” as the sequence, how does the binding signal read?
**A.** The binding signal was 9680 fluorescence intensity (a.u.).

**Q.** For “TGTATGCTTTTTGCGCCATATCCCACCTTTTTTCCGTTTCCGGAGTCACCTAGTGCAG”, which binding signal is on record?
**A.** The binding signal was 9540 fluorescence intensity (a.u.).

**Q.** “TAATTCCTGTGTTTGCAATCCTCTGTTTTATACTTACATTCGGAGTCACCTAGTGCAG” was tested. Which binding signal did it give?
**A.** The binding signal was 11400 fluorescence intensity (a.u.).

**Q.** With “ATCTGCATTTGTTTGTTCCTGTCACCTTTGTACCATCCAACGGAGTCACCTAGTGCAG” as the sequence, how does the binding signal read?
**A.** The binding signal was 13100 fluorescence intensity (a.u.).

**Q.** With “ATTAATTGGTATAAGTCATCTCTGGCTCCTTGCAAAAATACGGAGTCACCTAGTGCAG” as the sequence, how does the binding signal read?
**A.** Its binding signal is 8970 fluorescence intensity (a.u.).

**Q.** For “CGGTTTGGACTCCGACTTGTGCTAACAGCCTCCCATTTCTCGGAGTCACCTAGTGCAG”, which binding signal is on record?
**A.** The binding signal was 8510 fluorescence intensity (a.u.).

**Q.** How did the binding signal turn out when “GAGGCGAGTGGGAGGGTGGGAGGGAGGGATGAAAGAGATGCGGAGTCACCTAGTGCAG” was run?
**A.** Its binding signal is 15800 fluorescence intensity (a.u.).

**Q.** “ACTCGGAATCGGTCGGAAAAAATTCCGGAAAGTTTGTCGGCGGAGTCACCTAGTGCAG” was tested. Which binding signal did it give?
**A.** Its binding signal is 15100 fluorescence intensity (a.u.).

**Q.** With “GGGTTTTAGAGCTCGCCTCTTCCGCTCTCTCTCTCTCTCTCGGAGTCACCTAGTGCAG” as the sequence, how does the binding signal read?
**A.** Its binding signal is 8600 fluorescence intensity (a.u.).

**Q.** “AGCGATCTTACGTGTGTAGTGCTGTGTGTTTATGAGCGTCCGGAGTCACCTAGTGCAG” was tested. Which binding signal did it give?
**A.** The binding signal was 9720 fluorescence intensity (a.u.).

**Q.** With “GTGAGTTCGACACCCCTCGCGCTTGTATTCTCTGCCGAAACGGAGTCACCTAGTGCAG” as the sequence, how does the binding signal read?
**A.** The binding signal was 10300 fluorescence intensity (a.u.).

**Q.** “TTTTAATTACTGATCTTCTTACAATTGCTTTTATGCTGTCCGGAGTCACCTAGTGCAG” was tested. Which binding signal did it give?
**A.** The binding signal was 9820 fluorescence intensity (a.u.).

**Q.** For “GTGCCTCTGGCGGTTTGTCGCGCTCGCCATGGCTGCCATTCGGAGTCACCTAGTGCAG”, which binding signal is on record?
**A.** The binding signal was 9030 fluorescence intensity (a.u.).

**Q.** How did the binding signal turn out when “GCCGCGTCGCCCTCTCCGATCTCTCCCCGCCTCCGCCATGCGGAGTCACCTAGTGCAG” was run?
**A.** Its binding signal is 8080 fluorescence intensity (a.u.).

**Q.** With “GCAACGGCGAGGGAGGGAAGGTGGTCCGGTGGTGGGGTGACGGAGTCACCTAGTGCAG” as the sequence, how does the binding signal read?
**A.** Its binding signal is 10500 fluorescence intensity (a.u.).

**Q.** With “CAAACACACCCTTAGACCTGATTACTTACAGCTTGTACAACGGAGTCACCTAGTGCAG” as the sequence, how does the binding signal read?
**A.** Its binding signal is 8190 fluorescence intensity (a.u.).

**Q.** For “CTGTGTTTTGCAATTCTCTGTTTTATACTTACATTCCTATCGGAGTCACCTAGTGCAG”, which binding signal is on record?
**A.** The binding signal was 15700 fluorescence intensity (a.u.).

**Q.** How did the binding signal turn out when “CCCTGGTTTTGACGGTGGTTAGGTGGGGCCAGAATTTTTACGGAGTCACCTAGTGCAG” was run?
**A.** Its binding signal is 9700 fluorescence intensity (a.u.).

**Q.** Which binding signal does the source give for “AACACGCTTAAGACACATATTGAAACATGTCCCTATCACGCGGAGTCACCTAGTGCAG” here?
**A.** The binding signal was 8900 fluorescence intensity (a.u.).

**Q.** Which binding signal does the source give for “GTCGCCTCACTTCCCTAGCCGCTAGGGCCGCCGCCACCGCCGGAGTCACCTAGTGCAG” here?
**A.** The binding signal was 9050 fluorescence intensity (a.u.).

**Q.** “CTCTCTCTCTCCTCTCACGCTTCGCTCGCGGCCGCTCCTCCGGAGTCACCTAGTGCAG” was tested. Which binding signal did it give?
**A.** The binding signal was 10300 fluorescence intensity (a.u.).

**Q.** With “TGTCCGCCTTCACCCACGTCTCGCCGCACTCGTCCAGCACCGGAGTCACCTAGTGCAG” as the sequence, how does the binding signal read?
**A.** The binding signal was 9230 fluorescence intensity (a.u.).

**Q.** For “AGTTCCCGCGTCTTTTCCTCCCATCCTCTAGCTCATGCCGCGGAGTCACCTAGTGCAG”, which binding signal is on record?
**A.** The binding signal was 11500 fluorescence intensity (a.u.).

**Q.** For “CCTCTTGTCCTGCTTCCTTCGCCGCTTCCATGTCTGATGGCGGAGTCACCTAGTGCAG”, which binding signal is on record?
**A.** The binding signal was 8400 fluorescence intensity (a.u.).

**Q.** How did the binding signal turn out when “AGTTGACCATCCTCTGGCTTGCAGGTCTTGCAGTAGCACTCGGAGTCACCTAGTGCAG” was run?
**A.** The binding signal was 10200 fluorescence intensity (a.u.).
